From PubChem BioAssay AID686978 (National Center for Advancing Translational Sciences (NCATS), 2013)
Out of some 420,000 compounds screened, about 64,000 (15%) were called active. Only results without a clear call are listed here; the source files them as inconclusive. The call rests on the fitted dose curve; in most records, active means well fitted inhibition curve with a large enough effect; inconclusive means small, poorly fitted or top-dose-only effect; inactive means flat fitted curve, though single readings scatter. Some results for these compounds are left out of this collection, so the calls shown say nothing about other tests.

assay: qHTS for Inhibitors of human tyrosyl-DNA phosphodiesterase 1 (TDP1): qHTS in cells in absence of CPT; conditions: DT40 Tdp1-/- hTDP1 cells, no CPT, ATP luminescence, 48 h; series mostly up to 46.2 µM; further: nearly all actives have a fitted effect of over 55% in size
Potency means the concentration at half of the fitted maximal effect.

SMILES | Potency
Cc1cc(C(=O)NCC2(N3CCCCC3)CCCCC2)ccc1[N+](=O)[O-] | inconclusive: 13 µM
O=C(OCCN1CCCC1)C(O)(c1ccccc1)c1ccccc1 | inconclusive: 29.1 µM
CC(C)COc1ccc(C(=O)NCC2(N(C)C)CCCCC2)cc1 | inconclusive: 29.1 µM
CN(C)C1(CNC(=O)c2ccc(Br)cc2)CCCCC1 | inconclusive: 5.17 µM
